Publication PMC10086758
These are yes or no findings as the source states them, for the method shown. In cells and extracts the contact can be indirect. Some entries that bind do so weakly or less than the wild type.

By UniProt entry, the sequences of proteins in these tests, tags left out.
UniProt O88536: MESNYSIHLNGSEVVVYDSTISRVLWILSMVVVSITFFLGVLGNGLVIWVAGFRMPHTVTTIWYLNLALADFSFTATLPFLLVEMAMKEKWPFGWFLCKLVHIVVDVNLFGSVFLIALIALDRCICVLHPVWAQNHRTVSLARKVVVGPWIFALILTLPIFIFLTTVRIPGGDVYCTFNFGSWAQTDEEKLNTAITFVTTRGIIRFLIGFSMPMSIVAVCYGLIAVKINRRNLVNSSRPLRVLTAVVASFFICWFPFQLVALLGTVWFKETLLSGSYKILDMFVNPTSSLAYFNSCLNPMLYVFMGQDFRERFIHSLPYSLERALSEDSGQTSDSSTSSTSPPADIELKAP

Target: T1, sphingosine-1-phosphate receptor 4 (UniProt Q9Z0L1)
T1 sequence: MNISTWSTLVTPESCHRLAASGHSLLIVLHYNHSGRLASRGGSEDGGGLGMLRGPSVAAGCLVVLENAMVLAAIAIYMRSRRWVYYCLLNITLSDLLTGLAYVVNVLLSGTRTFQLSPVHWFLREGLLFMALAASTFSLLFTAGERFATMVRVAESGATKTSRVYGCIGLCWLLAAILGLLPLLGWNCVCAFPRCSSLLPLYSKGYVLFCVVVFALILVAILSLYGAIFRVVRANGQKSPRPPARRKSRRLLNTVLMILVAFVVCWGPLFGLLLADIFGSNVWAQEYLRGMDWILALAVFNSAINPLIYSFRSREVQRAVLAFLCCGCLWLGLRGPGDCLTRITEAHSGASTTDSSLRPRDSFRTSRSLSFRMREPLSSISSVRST
Assay: co-IP; whole-cell lysate of adenovirus-treated BMDMs from WT mice; anti-FLAG antibody at 4°C overnight, magnetic beads 2 h at 4°C, three washes with lysis buffer, western blot for FLAG and FPR2

For “formyl peptide receptor 2 (from UniProt O88536 1-351)”, the binding was “binds”.
